Cleaved PARP in drug-treated melanoma cells

Source: doi:10.1371/journal.pone.0140310, primary screening data, rounded.

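The test systems are human melanoma cell lines, treated with a pair of drugs for 72 h and then stained and imaged. Each value is the cleaved-PARP-positive fraction of nuclei relative to DMSO-treated wells, in %, so that 100 equals the control and higher values mean more apoptosis. Concentrations were fixed for each drug; these are the higher of two levels. The file gives one value for each pair and line, without errors, so small differences may be noise. The marker varies much from line to line, for technical or biological reasons.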 This is part of the screen, not chosen by result. A dash means that no value is listed here.

Drug key:
sunitinib (2 µM): CCN(CC)CCNC(=O)c1c(C)[nH]c(/C=C2\C(=O)Nc3ccc(F)cc32)c1C
fingolimod (10 µM): CCCCCCCCc1ccc(CCC(N)(CO)CO)cc1
decitabine (0.5 µM): Nc1ncn([C@H]2C[C@H](O)[C@@H](CO)O2)c(=O)n1
JZL184 (5 µM): O=C(Oc1ccc([N+](=O)[O-])cc1)N1CCC(C(O)(c2ccc3c(c2)OCO3)c2ccc3c(c2)OCO3)CC1
cediranib (2 µM): COc1cc2c(Oc3ccc4[nH]c(C)cc4c3F)ncnc2cc1OCCCN1CCCC1
cisplatin (8 µM): N.N.[Cl][Pt][Cl]
Src-I1 (10 µM): COc1cc2ncnc(Nc3ccc(Oc4ccccc4)cc3)c2cc1OC
GW2580 (5 µM): COc1ccc(COc2ccc(Cc3cnc(N)nc3N)cc2OC)cc1
darinaparsin (2 µM): C[As](C)SC[C@H](NC(=O)CC[C@H](N)C(=O)O)C(=O)NCC(=O)O
SU6656 (2 µM): CN(C)S(=O)(=O)c1ccc2c(c1)/C(=C/c1cc3c([nH]1)CCCC3)C(=O)N2
BI-78D3 (1 µM): O=c1[nH]nc(Sc2ncc([N+](=O)[O-])s2)n1-c1ccc2c(c1)OCCO2
OSU-03012 (5 µM): NCC(=O)Nc1ccc(-n2nc(C(F)(F)F)cc2-c2ccc3c(ccc4ccccc43)c2)cc1
SNS-314 (0.004 µM): O=C(Nc1cccc(Cl)c1)Nc1ncc(CCNc2ncnc3ccsc23)s1
docetaxel (0.0005 µM): CC(=O)O[C@@]12CO[C@@H]1C[C@H](O)[C@@]1(C)C(=O)[C@H](O)C3=C(C)[C@@H](OC(=O)[C@H](O)[C@@H](NC(=O)OC(C)(C)C)c4ccccc4)C[C@@](O)([C@@H](OC(=O)c4ccccc4)[C@H]21)C3(C)C
CHIR-265 (0.4 µM): Cn1c(Nc2ccc(C(F)(F)F)cc2)nc2cc(Oc3ccnc(-c4ncc(C(F)(F)F)[nH]4)c3)ccc21
VX-702 (2 µM): NC(=O)c1ccc(N(C(N)=O)c2c(F)cccc2F)nc1-c1ccc(F)cc1F
GSK650394 (0.8 µM): O=C(O)c1ccc(-c2c[nH]c3ncc(-c4ccccc4)cc23)cc1C1CCCC1
temozolomide (10 µM): Cn1nnc2c(C(N)=O)ncn2c1=O
tamatinib (2 µM): COc1cc(Nc2ncc(F)c(Nc3ccc4c(n3)NC(=O)C(C)(C)O4)n2)cc(OC)c1OC

| # | Pair | WM1745 | G-361 | IPC-298 | 501mel | RVH-421 | WM451Lu |
|---|---|---|---|---|---|---|---|
| 1 | OSU-03012 + Src-I1 | 161 | 1160 | 86.7 | 3170 | 188 | 1170 |
| 2 | cisplatin + SU6656 | 115 | 116 | 44.1 | - | 157 | 118 |
| 3 | darinaparsin + docetaxel | 273 | 620 | 654 | - | 33.4 | 213 |
| 4 | darinaparsin + OSU-03012 | 135 | 142 | 126 | - | 147 | 74.7 |
| 5 | BI-78D3 + tamatinib | 201 | 127 | 165 | - | 75.4 | 42.7 |
| 6 | JZL184 + Src-I1 | 131 | 149 | 116 | 140 | 67.3 | 61.0 |
| 7 | GW2580 + OSU-03012 | 131 | 168 | 104 | 3130 | 335 | 30.7 |
| 8 | OSU-03012 + sunitinib | 204 | 265 | 81.1 | - | 387 | 173 |
| 9 | CHIR-265 + darinaparsin | 147 | 674 | 162 | - | 269 | 140 |
| 10 | fingolimod + BI-78D3 | 1420 | 5150 | 174 | - | 697 | 1350 |
| 11 | cediranib + OSU-03012 | 112 | 47.2 | 242 | - | 120 | 72.0 |
| 12 | GW2580 + cisplatin | - | 103 | 79.8 | 183 | 87.2 | 43.1 |
| 13 | decitabine + tamatinib | 229 | 258 | 230 | - | 58.0 | 154 |
| 14 | VX-702 + Src-I1 | - | 161 | 186 | 158 | 254 | 90.3 |
| 15 | sunitinib + temozolomide | 226 | 112 | 30.1 | - | 64.7 | 80.7 |
| 16 | GSK650394 + Src-I1 | 127 | 90.8 | 41.8 | 204 | 281 | 111 |
| 17 | VX-702 + SNS-314 | 109 | 161 | 27.5 | - | 142 | 271 |
| 18 | Src-I1 + SU6656 | 162 | 551 | 162 | 79.2 | 40.6 | 218 |
| 19 | CHIR-265 + BI-78D3 | 129 | 619 | 222 | - | 92.2 | 620 |
| 20 | cediranib + SU6656 | 157 | 147 | 106 | - | 126 | 142 |
| 21 | OSU-03012 + temozolomide | 70.1 | 201 | 68.5 | - | 131 | 62.5 |

Repeated from the top, 2 entries:

Pair	WM1745	G-361	IPC-298	501mel	RVH-421	WM451Lu
OSU-03012 + Src-I1	161	1160	86.7	3170	188	1170
cisplatin + SU6656	115	116	44.1	-	157	118